Reference: the supplement of paper PMC10849652
The other results are listed elsewhere or left out.

Amino acid sequences for entries named in this document (tags omitted). A change or cut given only in a name is not applied to a line headed by its entry.
UniProt P61009: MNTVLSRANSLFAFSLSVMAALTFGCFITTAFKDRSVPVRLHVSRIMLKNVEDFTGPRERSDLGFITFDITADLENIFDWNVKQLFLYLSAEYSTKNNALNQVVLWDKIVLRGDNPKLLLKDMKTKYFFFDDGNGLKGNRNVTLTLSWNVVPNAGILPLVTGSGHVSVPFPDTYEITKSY
UniProt P37108: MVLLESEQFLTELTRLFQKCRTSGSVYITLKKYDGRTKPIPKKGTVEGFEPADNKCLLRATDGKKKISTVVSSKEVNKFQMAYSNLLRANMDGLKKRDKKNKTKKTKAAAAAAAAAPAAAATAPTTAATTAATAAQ
UniProt Q9Y5M8: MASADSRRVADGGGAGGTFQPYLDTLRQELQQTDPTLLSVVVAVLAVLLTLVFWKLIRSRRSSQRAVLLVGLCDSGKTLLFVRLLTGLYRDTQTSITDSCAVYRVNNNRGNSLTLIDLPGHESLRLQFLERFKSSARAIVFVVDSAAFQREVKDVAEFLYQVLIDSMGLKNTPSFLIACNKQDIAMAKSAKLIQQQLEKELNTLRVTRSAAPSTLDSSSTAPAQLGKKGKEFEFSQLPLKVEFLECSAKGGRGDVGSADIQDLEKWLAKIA
UniProt O76094: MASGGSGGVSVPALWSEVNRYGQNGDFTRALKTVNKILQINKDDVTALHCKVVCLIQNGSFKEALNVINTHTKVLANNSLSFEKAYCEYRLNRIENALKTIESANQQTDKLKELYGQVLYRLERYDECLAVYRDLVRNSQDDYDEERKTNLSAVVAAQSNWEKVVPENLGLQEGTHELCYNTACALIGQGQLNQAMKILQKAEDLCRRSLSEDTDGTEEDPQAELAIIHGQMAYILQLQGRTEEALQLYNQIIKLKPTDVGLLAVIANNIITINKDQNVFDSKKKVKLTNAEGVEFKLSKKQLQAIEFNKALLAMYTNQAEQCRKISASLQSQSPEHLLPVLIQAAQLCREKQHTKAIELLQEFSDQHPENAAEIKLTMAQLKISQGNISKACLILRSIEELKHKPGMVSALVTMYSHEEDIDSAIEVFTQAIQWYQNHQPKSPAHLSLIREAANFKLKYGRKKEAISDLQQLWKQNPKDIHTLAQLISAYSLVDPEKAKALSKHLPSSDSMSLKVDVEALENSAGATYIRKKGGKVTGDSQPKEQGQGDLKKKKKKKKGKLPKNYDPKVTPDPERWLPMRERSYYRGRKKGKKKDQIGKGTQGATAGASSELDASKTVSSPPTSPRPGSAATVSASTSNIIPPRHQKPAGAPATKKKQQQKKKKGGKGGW
UniProt Q9NP77: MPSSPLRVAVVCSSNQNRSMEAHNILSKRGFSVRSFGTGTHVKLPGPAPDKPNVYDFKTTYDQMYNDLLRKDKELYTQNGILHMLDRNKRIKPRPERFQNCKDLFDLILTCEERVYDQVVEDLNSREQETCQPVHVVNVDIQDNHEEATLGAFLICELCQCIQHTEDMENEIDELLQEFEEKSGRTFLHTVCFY
UniProt Q96EA4: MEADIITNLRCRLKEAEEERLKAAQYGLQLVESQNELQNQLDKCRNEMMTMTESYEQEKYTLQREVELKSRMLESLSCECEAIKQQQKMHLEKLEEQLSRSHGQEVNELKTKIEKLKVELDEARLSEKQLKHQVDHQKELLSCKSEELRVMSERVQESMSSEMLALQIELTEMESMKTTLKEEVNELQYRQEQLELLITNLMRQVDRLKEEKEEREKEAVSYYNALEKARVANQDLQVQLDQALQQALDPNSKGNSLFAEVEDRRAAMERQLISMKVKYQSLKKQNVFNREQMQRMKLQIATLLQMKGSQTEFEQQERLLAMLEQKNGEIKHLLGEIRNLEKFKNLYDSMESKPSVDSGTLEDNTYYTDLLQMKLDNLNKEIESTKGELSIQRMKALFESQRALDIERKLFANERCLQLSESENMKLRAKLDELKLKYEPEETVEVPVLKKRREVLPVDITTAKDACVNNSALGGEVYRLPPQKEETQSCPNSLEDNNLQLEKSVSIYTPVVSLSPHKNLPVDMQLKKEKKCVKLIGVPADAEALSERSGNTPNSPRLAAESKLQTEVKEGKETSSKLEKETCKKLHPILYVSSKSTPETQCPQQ
UniProt P31948, whole entry, looked up: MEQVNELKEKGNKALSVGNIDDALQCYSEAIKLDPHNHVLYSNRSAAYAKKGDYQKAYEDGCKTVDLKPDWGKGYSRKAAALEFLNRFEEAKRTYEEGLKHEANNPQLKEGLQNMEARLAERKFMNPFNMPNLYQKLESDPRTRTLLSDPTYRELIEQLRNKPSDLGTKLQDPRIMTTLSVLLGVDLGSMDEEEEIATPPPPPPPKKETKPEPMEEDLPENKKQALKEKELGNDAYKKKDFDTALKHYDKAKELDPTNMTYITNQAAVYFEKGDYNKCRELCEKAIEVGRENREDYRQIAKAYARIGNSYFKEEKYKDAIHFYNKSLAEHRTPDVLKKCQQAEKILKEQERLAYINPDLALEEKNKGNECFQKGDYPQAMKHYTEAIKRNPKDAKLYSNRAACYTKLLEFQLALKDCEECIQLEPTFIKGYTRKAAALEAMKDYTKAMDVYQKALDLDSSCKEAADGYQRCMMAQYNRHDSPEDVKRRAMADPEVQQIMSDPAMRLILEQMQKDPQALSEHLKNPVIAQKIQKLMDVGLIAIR
UniProt Q8N9Q2: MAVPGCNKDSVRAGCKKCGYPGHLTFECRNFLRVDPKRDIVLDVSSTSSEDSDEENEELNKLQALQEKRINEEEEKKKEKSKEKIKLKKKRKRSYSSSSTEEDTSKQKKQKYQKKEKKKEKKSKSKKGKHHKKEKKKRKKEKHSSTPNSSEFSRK
UniProt Q9H254, whole entry, looked up: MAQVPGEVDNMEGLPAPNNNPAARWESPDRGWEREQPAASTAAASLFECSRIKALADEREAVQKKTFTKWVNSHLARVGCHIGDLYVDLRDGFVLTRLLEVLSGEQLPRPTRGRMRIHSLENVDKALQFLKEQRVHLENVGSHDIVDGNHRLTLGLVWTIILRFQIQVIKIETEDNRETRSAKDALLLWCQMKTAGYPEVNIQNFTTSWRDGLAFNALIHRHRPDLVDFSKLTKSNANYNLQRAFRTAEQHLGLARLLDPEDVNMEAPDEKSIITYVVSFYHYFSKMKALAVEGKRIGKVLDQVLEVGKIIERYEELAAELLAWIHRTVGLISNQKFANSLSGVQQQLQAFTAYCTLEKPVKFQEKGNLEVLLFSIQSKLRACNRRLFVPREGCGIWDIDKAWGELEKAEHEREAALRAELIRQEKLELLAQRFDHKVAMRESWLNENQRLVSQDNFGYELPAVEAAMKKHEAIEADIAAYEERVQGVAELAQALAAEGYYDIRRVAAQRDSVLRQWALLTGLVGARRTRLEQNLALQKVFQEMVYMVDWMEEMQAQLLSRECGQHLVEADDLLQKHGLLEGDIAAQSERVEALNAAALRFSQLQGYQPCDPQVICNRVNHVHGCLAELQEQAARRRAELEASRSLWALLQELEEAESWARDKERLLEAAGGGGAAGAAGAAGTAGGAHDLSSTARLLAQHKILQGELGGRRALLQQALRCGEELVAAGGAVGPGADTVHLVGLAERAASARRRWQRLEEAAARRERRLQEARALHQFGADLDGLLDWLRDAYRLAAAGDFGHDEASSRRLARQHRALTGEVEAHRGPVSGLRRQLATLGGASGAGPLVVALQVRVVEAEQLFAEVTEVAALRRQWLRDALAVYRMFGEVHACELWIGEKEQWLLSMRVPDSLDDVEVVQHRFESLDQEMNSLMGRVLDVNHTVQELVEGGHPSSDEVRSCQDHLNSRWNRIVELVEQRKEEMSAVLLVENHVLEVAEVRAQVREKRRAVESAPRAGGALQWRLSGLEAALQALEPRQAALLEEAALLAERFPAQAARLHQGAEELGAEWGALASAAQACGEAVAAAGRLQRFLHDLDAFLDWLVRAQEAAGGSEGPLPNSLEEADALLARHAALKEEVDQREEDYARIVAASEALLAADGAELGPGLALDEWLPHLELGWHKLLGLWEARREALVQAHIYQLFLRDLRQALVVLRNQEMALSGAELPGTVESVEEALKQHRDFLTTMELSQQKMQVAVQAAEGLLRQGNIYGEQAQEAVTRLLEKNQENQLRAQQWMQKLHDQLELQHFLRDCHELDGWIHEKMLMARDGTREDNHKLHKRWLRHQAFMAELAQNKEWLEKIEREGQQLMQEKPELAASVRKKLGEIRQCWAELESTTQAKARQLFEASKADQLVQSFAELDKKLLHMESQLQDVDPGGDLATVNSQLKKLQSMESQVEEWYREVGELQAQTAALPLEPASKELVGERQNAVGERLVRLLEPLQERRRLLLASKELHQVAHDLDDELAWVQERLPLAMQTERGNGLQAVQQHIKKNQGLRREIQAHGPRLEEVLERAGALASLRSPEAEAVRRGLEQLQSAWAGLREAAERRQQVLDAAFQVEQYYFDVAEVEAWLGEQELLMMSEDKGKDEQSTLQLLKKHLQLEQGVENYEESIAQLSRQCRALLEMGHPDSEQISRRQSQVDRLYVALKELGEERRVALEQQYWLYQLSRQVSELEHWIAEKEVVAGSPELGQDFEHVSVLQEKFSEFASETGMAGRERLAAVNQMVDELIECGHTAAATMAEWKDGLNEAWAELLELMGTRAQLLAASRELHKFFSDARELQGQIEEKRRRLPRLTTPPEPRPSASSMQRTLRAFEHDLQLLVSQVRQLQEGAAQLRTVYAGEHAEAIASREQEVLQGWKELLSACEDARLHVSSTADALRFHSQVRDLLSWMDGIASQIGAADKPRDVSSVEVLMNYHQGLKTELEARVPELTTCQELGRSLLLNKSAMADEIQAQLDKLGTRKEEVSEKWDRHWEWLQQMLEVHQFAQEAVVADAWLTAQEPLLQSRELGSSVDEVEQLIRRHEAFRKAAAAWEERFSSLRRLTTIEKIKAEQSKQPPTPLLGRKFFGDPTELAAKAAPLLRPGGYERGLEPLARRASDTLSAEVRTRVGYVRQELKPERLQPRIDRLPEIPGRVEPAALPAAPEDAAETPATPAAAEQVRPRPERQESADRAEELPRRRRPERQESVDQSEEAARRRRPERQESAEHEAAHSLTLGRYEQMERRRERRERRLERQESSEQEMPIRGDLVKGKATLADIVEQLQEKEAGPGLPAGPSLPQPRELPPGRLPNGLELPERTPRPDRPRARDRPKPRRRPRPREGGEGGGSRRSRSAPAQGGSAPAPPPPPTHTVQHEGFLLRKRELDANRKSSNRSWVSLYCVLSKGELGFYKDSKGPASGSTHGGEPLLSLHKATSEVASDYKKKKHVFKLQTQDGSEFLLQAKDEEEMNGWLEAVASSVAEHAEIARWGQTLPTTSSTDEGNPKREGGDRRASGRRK
UniProt Q9BUA3: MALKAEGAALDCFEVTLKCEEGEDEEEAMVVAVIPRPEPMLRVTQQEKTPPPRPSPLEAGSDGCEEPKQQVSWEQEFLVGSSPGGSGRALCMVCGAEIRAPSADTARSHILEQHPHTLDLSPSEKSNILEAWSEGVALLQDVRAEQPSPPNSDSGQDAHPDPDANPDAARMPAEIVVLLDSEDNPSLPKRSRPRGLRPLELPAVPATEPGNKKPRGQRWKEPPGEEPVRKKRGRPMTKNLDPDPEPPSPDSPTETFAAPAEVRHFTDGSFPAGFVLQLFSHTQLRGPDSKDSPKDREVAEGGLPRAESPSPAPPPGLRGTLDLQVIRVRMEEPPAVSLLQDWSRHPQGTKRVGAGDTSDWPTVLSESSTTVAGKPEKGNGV
UniProt Q16629: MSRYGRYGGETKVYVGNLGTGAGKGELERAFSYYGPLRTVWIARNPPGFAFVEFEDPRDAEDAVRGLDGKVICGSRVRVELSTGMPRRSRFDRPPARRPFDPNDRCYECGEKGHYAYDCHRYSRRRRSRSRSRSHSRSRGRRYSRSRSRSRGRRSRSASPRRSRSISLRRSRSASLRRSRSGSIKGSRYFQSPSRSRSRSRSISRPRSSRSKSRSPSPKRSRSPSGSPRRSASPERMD
UniProt Q9UHB9: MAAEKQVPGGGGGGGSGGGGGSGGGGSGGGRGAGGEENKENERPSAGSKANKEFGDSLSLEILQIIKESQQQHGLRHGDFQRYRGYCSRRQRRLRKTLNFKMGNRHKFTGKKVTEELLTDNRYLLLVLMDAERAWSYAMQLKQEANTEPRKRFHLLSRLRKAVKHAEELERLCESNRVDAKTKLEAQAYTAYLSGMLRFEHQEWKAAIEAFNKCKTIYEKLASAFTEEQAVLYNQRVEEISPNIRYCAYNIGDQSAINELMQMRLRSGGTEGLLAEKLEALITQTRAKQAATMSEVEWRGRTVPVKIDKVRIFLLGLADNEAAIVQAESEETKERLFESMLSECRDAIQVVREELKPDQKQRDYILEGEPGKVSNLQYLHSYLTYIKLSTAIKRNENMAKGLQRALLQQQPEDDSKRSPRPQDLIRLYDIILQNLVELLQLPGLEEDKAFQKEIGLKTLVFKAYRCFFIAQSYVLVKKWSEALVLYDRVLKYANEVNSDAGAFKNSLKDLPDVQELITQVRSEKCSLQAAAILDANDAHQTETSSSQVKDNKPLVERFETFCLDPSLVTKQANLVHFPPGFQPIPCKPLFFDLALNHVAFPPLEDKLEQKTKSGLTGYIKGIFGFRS

Assays:
Assay in all cases: log2 fold change, soluble protein after heating vs DMSO (PISA); higher = thermal stabilisation; K562 cells, 10 uM, 30 min; active = over 0.2 and 3.5 SD of the protein, either way, in both replicates (recomputed)
saracatinib = compound: CN1CCN(CCOc2cc(OC3CCOCC3)c3c(Nc4c(Cl)ccc5c4OCO5)ncnc3c2)CC1 [saracatinib]
Summary of the method: (§1)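 Quantification of soluble protein used TMTpro 16plex LC-MS/MS, with channel sums equalised. Samples were the supernatant after 21,000xg for 90 min of pooled aliquots from K562 cells (2×10^6 cells/mL) treated with 10 μM compound for 30 min, heated for 3 min over 48°C-58°C, and extracted in PBS with 0.5% NP-40 at 4°C. Values, from duplicates, describe thermal stability against control samples on a log2 fold-change scale.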

sotrastaurin = compound: CN1CCN(c2nc(C3=C(c4c[nH]c5ccccc45)C(=O)NC3=O)c3ccccc3n2)CC1 [sotrastaurin]
Summary of the method: as §1

alvocidib = compound: CN1CC[C@H](c2c(O)cc(O)c3c(=O)cc(-c4ccccc4Cl)oc23)[C@H](O)C1 [alvocidib]
Summary of the method: as §1

Tubastatin A = compound: CN1CCc2c(c3ccccc3n2Cc2ccc(C(=O)NO)cc2)C1 [Tubastatin A]
Summary of the method: as §1

[1] = compound: CNC(=O)C1=CC=CC=C1NC2=NC(=NC=C2Cl)NC3=C(C=C(C=C3)N4CCOCC4)OC
Summary of the method: as §1

defactinib = compound: CNC(=O)c1ccc(Nc2ncc(C(F)(F)F)c(NCc3nccnc3N(C)S(C)(=O)=O)n2)cc1 [defactinib]
Summary of the method: as §1

rucaparib = compound: CNCc1ccc(-c2[nH]c3cc(F)cc4c3c2CCNC4=O)cc1 [rucaparib]
Summary of the method: as §1

[2] = compound: CNc1nc(-c2ccc3c(N)n[nH]c3c2)cc(N2C[C@@H](C(=O)NC3CCCCC3)CC[C@H]2C)n1
Summary of the method: as §1

encorafenib = compound: COC(=O)N[C@@H](C)CNc1nccc(-c2cn(C(C)C)nc2-c2cc(Cl)cc(NS(C)(=O)=O)c2F)n1 [encorafenib]
Summary of the method: as §1

[3] = compound: COC(=O)[C@H](CCSC)NC(=O)C1=C(C=C(C=C1)NC[C@H](CS)N)C2=CC=CC=C2
Summary of the method: as §1

[4] = compound: COC1=CC=C(C=C1)CN2C=CC3=C2C=C(C=C3)C(=O)NO
Summary of the method: as §1

filanesib = compound: CON(C)C(=O)N1N=C(c2cc(F)ccc2F)S[C@@]1(CCCN)c1ccccc1 [filanesib]
Summary of the method: as §1

zotarolimus = compound: CO[C@H]1C[C@@H]2CC[C@@H](C)[C@@](O)(O2)C(=O)C(=O)N2CCCC[C@H]2C(=O)O[C@H]([C@H](C)C[C@@H]2CC[C@H](n3cnnn3)[C@H](OC)C2)CC(=O)[C@H](C)/C=C(\C)[C@@H](O)[C@@H](OC)C(=O)[C@H](C)C[C@H](C)/C=C/C=C/C=C/1C [zotarolimus]
Summary of the method: as §1

idasanutlin = compound: COc1cc(C(=O)O)ccc1NC(=O)[C@@H]1N[C@@H](CC(C)(C)C)[C@](C#N)(c2ccc(Cl)cc2F)[C@H]1c1cccc(Cl)c1F [idasanutlin]
Summary of the method: as §1

alisertib = compound: COc1cc(Nc2ncc3c(n2)-c2ccc(Cl)cc2C(c2c(F)cccc2OC)=NC3)ccc1C(=O)O [alisertib]
Summary of the method: as §1

[5] = compound: COc1cc2nc(-c3cc(F)ccc3O)nc(N[C@@H]3CNC[C@H]3C(C)(C)O)c2cc1OC
Summary of the method: as §1

gefitinib = compound: COc1cc2ncnc(Nc3ccc(F)c(Cl)c3)c2cc1OCCCN1CCOCC1 [gefitinib]
Summary of the method: as §1

[6] = compound: COc1cccc2cc(-c3nc([C@H]4CC[C@H](C(=O)O)CC4)n4ncnc(N)c34)[nH]c12
Summary of the method: as §1

lapatinib = compound: CS(=O)(=O)CCNCc1ccc(-c2ccc3ncnc(Nc4ccc(OCc5cccc(F)c5)c(Cl)c4)c3c2)o1 [lapatinib]
Summary of the method: as §1

pictilisib = compound: CS(=O)(=O)N1CCN(Cc2cc3nc(-c4cccc5[nH]ncc45)nc(N4CCOCC4)c3s2)CC1 [pictilisib]
Summary of the method: as §1

Measured: log2 fold change

SPCS3 (UniProt P61009)
inactive: saracatinib -0.02 | sotrastaurin 0.013 | alvocidib 0.017 | Tubastatin A -0.03 | [1] 0.032 | defactinib -0.005 | rucaparib 0.005 | [2] -0.01 | encorafenib 0.001 | [3] 0.002 | [4] -0.114 | filanesib 0.054 | zotarolimus -0.017 | idasanutlin 0.067 | alisertib -0.05 | [5] 0.034 | gefitinib 0.004 | [6] -0.011 | lapatinib 0.007 | pictilisib -0.013

SRP14 (UniProt P37108)
inactive: saracatinib -0.059 | sotrastaurin 0 | alvocidib 0.279 | Tubastatin A 0.105 | [1] -0.037 | defactinib 0.266 | rucaparib 0.349 | [2] 0.105 | encorafenib 0.127 | [3] 0.045 | [4] -0.258 | filanesib 0.36 | zotarolimus -0.023 | idasanutlin 0.224 | alisertib -0.111 | [5] -0.106 | gefitinib -0.022 | [6] -0.209 | lapatinib 0.1 | pictilisib -0.126

SRPRB (UniProt Q9Y5M8)
inactive: saracatinib -0.03 | sotrastaurin -0.036 | Tubastatin A 0.004 | [1] 0.087 | defactinib 0.026 | rucaparib 0.151 | [2] 0.032 | encorafenib -0.013 | [3] -0.064 | [4] 0.133 | filanesib -0.076 | zotarolimus 0.018 | idasanutlin -0.11 | alisertib -0.021 | [5] 0.136 | gefitinib -0.001 | [6] -0.03 | lapatinib 0.048 | pictilisib -0.022

SPARC (UniProt P09486)
inactive: saracatinib 0.102 | sotrastaurin 0.031 | alvocidib 0.04 | Tubastatin A -0.118 | [1] 0.032 | defactinib -0.018 | rucaparib -0.031 | [2] -0.045 | encorafenib 0.013 | [3] 0.116 | [4] -0.011 | filanesib 0.126 | zotarolimus -0.139 | idasanutlin 0.01 | alisertib -0.097 | [5] -0.09 | gefitinib 0.013 | [6] 0.104 | lapatinib 0.114 | pictilisib 0.024

SRP72 (UniProt O76094)
inactive: saracatinib -0.102 | sotrastaurin -0.181 | Tubastatin A 0.119 | [1] 0.04 | defactinib -0.035 | rucaparib 0.184 | [2] 0.055 | encorafenib 0.155 | [3] -0.134 | [4] 0.003 | filanesib 0.075 | zotarolimus 0.048 | idasanutlin -0.045 | alisertib -0.131 | [5] 0.023 | gefitinib 0.007 | [6] -0.235 | lapatinib -0.043 | pictilisib 0

STARD7 (UniProt Q9NQZ5)
inactive: saracatinib -0.021 | sotrastaurin 0.041 | Tubastatin A -0.005 | [1] -0.012 | defactinib -0.047 | rucaparib -0.009 | [2] -0.014 | encorafenib 0.03 | [3] -0.043 | [4] 0.006 | filanesib -0.094 | zotarolimus 0.006 | idasanutlin -0.063 | alisertib 0.027 | [5] -0.171 | gefitinib -0.035 | [6] 0.031 | lapatinib 0.003 | pictilisib 0.01

SSU72 (UniProt Q9NP77)
inactive: saracatinib -0.02 | sotrastaurin -0.14 | alvocidib -0.186 | Tubastatin A 0.267 | [1] 0.066 | defactinib -0.081 | [2] 0.019 | [3] -0.058 | [4] 0.036 | filanesib -0.009 | zotarolimus 0.069 | idasanutlin -0.015 | alisertib 0.161 | [5] 0.044 | [6] 0.19 | lapatinib -0.073 | pictilisib 0.12

SPDL1 (UniProt Q96EA4)
inactive: saracatinib 0.04 | sotrastaurin 0.024 | alvocidib -0.037 | Tubastatin A 0.19 | [1] 0.054 | rucaparib 0.234 | [2] -0.084 | encorafenib 0.11 | filanesib 0.2 | zotarolimus 0.124 | [5] 0.042 | lapatinib 0.139

STIP1 isoform 2 (UniProt P31948)
inactive: saracatinib 0.03 | sotrastaurin -0.007 | alvocidib -0.019 | Tubastatin A -0.021 | [1] 0.01 | defactinib -0.001 | rucaparib -0.062 | [2] -0.029 | encorafenib 0.025 | [3] 0.03 | [4] 0.061 | filanesib -0.062 | zotarolimus -0.005 | idasanutlin -0.012 | alisertib -0.045 | [5] 0.011 | gefitinib -0.001 | [6] 0.008 | lapatinib -0.019 | pictilisib -0.028

SREK1IP1 (UniProt Q8N9Q2)
inactive: saracatinib -0.041 | sotrastaurin -0.045 | alvocidib 0.238 | Tubastatin A -0.059 | [1] 0.053 | defactinib 0.206 | rucaparib 0.091 | [2] -0.02 | encorafenib 0.001 | [3] -0.017 | filanesib 0.152 | zotarolimus 0.01 | idasanutlin 0.159 | alisertib -0.025 | [5] 0.076 | gefitinib -0.07 | [6] 0.049 | lapatinib 0.086 | pictilisib 0.09

SSR3 isoform 2 (UniProt Q9UNL2)
inactive: saracatinib 0.153 | sotrastaurin 0.083 | Tubastatin A -0.04 | [1] 0.006 | defactinib -0.006 | rucaparib -0.049 | [2] -0.052 | encorafenib 0.001 | [3] 0.086 | [4] -0.236 | filanesib -0.107 | zotarolimus 0.087 | idasanutlin 0.066 | alisertib -0.015 | [5] -0.013 | gefitinib 0.003 | [6] 0.08 | lapatinib 0.006 | pictilisib -0.096

SPTBN4 (UniProt Q9H254)
inactive: saracatinib -0.056 | sotrastaurin 0.009 | Tubastatin A -0.005 | [1] -0.284 | defactinib 0.039 | rucaparib 0.059 | [2] -0.035 | encorafenib -0.076 | [3] -0.002 | [4] -0.036 | filanesib -0.068 | zotarolimus 0.014 | idasanutlin -0.237 | alisertib -0.116 | [5] -0.202 | gefitinib -0.047 | [6] 0.158 | lapatinib 0.041 | pictilisib 0.175

SPINDOC (UniProt Q9BUA3)
inactive: saracatinib 0.185 | sotrastaurin -0.23 | Tubastatin A -0.121 | [1] -0.039 | defactinib 0.068 | rucaparib 0 | [2] -0.02 | encorafenib 0.057 | [3] 0.049 | [4] 0.165 | filanesib 0.221 | zotarolimus -0.02 | idasanutlin 0.008 | alisertib -0.113 | [5] 0.145 | gefitinib 0.073 | [6] 0.017 | lapatinib -0.045 | pictilisib -0.117

SPG7 (UniProt Q9UQ90)
inactive: saracatinib -0.029 | sotrastaurin 0.036 | alvocidib 0.036 | Tubastatin A -0.008 | [1] 0.004 | defactinib -0.025 | rucaparib -0.02 | [2] -0.02 | encorafenib 0.004 | [3] -0.038 | [4] -0.032 | filanesib -0.05 | zotarolimus -0.058 | idasanutlin 0.019 | alisertib 0.026 | [5] 0.03 | gefitinib 0.031 | [6] 0.063 | lapatinib 0.006 | pictilisib 0.029

2 neighbouring entries out of the list so far, for reference:
SRP72 (UniProt O76094)
inactive: saracatinib -0.102 | sotrastaurin -0.181 | Tubastatin A 0.119 | [1] 0.04 | defactinib -0.035 | rucaparib 0.184 | [2] 0.055 | encorafenib 0.155 | [3] -0.134 | [4] 0.003 | filanesib 0.075 | zotarolimus 0.048 | idasanutlin -0.045 | alisertib -0.131 | [5] 0.023 | gefitinib 0.007 | [6] -0.235 | lapatinib -0.043 | pictilisib 0

STARD7 (UniProt Q9NQZ5)
inactive: saracatinib -0.021 | sotrastaurin 0.041 | Tubastatin A -0.005 | [1] -0.012 | defactinib -0.047 | rucaparib -0.009 | [2] -0.014 | encorafenib 0.03 | [3] -0.043 | [4] 0.006 | filanesib -0.094 | zotarolimus 0.006 | idasanutlin -0.063 | alisertib 0.027 | [5] -0.171 | gefitinib -0.035 | [6] 0.031 | lapatinib 0.003 | pictilisib 0.01

(further entries)

STAT3 (UniProt P40763)
inactive: saracatinib 0.025 | sotrastaurin -0.144 | Tubastatin A 0.05 | [1] 0.029 | defactinib -0.124 | rucaparib -0.062 | [2] -0.017 | encorafenib 0.077 | [3] -0.012 | [4] 0.063 | filanesib -0.031 | zotarolimus 0.086 | idasanutlin -0.003 | alisertib 0.013 | [5] 0.023 | gefitinib 0 | [6] -0.039 | lapatinib 0.004 | pictilisib 0.051

SRSF7 (UniProt Q16629)
inactive: saracatinib -0.014 | sotrastaurin 0.12 | Tubastatin A 0.006 | [1] -0.226 | defactinib 0.168 | rucaparib 0.3 | [2] -0.04 | encorafenib 0.038 | [3] 0.042 | [4] -0.089 | filanesib 0.422 | zotarolimus -0.015 | idasanutlin 0.327 | alisertib -0.114 | [5] -0.047 | gefitinib 0.084 | [6] 0.013 | lapatinib 0.1 | pictilisib -0.003

SRP68 (UniProt Q9UHB9)
inactive: saracatinib -0.033 | sotrastaurin -0.179 | Tubastatin A 0.085 | [1] -0.002 | defactinib -0.019 | rucaparib 0.152 | [2] 0.049 | encorafenib 0.14 | [3] -0.073 | [4] 0.024 | filanesib 0.066 | zotarolimus 0.043 | idasanutlin -0.036 | alisertib -0.029 | [5] 0.016 | gefitinib 0.008 | [6] -0.126 | lapatinib -0.011 | pictilisib -0.054
